## Primary screen of a compound library

From ChEMBL document CHEMBL3988442, “University of Dundee, Small-Polar-MMV Screening Library” (2021).

A: 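Growth of Mycobacterium tuberculosis over 3 days (7H9 medium with glucose and tyloxapol); the read-out is not stated. Tested at 500 µM. The record gives no direction; compounds that gave an IC50 in retests scored well above the rest, so higher reads as more growth inhibition. Size under these conditions: about 18,000 compounds, about 1,400 of them at 50% or above in at least one test.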
B: 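Whole-cell growth test on Mycobacterium tuberculosis, read after 4 days in a medium based on cholesterol and the lipid DPPC; the read-out is not stated. Tested at 500 µM. Direction is inferred from retests: higher values go with more growth inhibition. Of about 18,000 compounds tested this way, about 900 (5%) reached 50% or more in at least one test.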

Results are given as percent effect.
The controls that fix the scale are not given in the record; negative values are as filed.
Compounds were drawn at random from those tested, without regard to their results.

compound | A | B
CCOC(=O)c1csc(CNC(=O)c2ccc(C)o2)n1 | 49.8 | 31.63
Cc1ccc2c(c1)C(O)CCCS2(=O)=O (stereo not drawn) | 10.12 | 2.629
COC(=O)[C@@H]1CCN[C@@H]1C(C)C | 0.1928 | -6.087
Cc1occc1-c1nnc(SC(C)C(N)=O)o1 (stereo not drawn) | 28.33 | 19.48
COc1cccc(F)c1C(=O)N[C@@H]1C[C@@H]2OCC[C@@H]21 | -6.365 | -7.025
CN(Cc1ccccc1C(F)(F)F)C(=O)CCCN | -5.739 | -11.33
NC(=O)c1cc(S(=O)(=O)NCCCc2ccco2)cs1 | 12.36 | 39
CN(Cc1ccc(N)nc1)c1ccc(C#N)cn1 | 51.84 | 44.92
COc1cc(C(C)=O)ccc1OCCCN(C)C | 25.48 | 20.76
CN1CCCN(CC(O)COCc2cccs2)CC1 (stereo not drawn) | 33.65 | 6.08
O=C(NCc1cccc(N2CCOC2=O)c1)N1CCC1 | 11.95 | 4.479
COCCC1(C(=O)NCc2ncoc2C)CC1 | 14.11 | 4.512
CSCc1nc(CNC(=O)CCc2ccnn2C)cs1 | 13.43 | 1.089
NC(=O)CN1CCN(Cc2ccc3c(c2)CCO3)CC1 | 8.682 | 0.04036
O=C(NCCCc1nnc2ccccn12)C1CCCN1 (stereo not drawn) | -2.578 | -18.72
Cc1cc(C(=O)Nc2nc(C)no2)[nH]n1 | -2.901 | -9.844
COc1ncccc1C(=O)NC(C)Cn1cccn1 (stereo not drawn) | 8.297 | -9.672
Cc1ccsc1CNC(=O)N1CCOCC1 | 25.79 | 16.23
Cc1ccc(CNC(=O)N2Cc3ccccc3C2)cn1 | -2.693 | -6.533
CN(C)C(=O)CCCn1ccc(N)n1 | -3.803 | 2.415
CCOC(=O)NCCC(=O)Nc1cccnc1 | 4.586 | -20.23
CCc1[nH]nc(NC(=O)Cc2ccccc2O)c1C | 12.28 | 11.54
CC(=O)c1ccc(CNc2nccnc2C#N)nc1C | 15 | 18.54
CCC(C(=O)Nc1ccc(OC)c(CO)c1)N(C)C (stereo not drawn) | -7.502 | -13.11
COc1ccc(C(=O)N(C)C2CCS(=O)(=O)C2)cc1F (stereo not drawn) | 10.5 | 4.309
CC[C@H](C)[C@H](N)C(=O)N(C)C | 4.451 | 3.705
CC(C)Oc1ccccc1CN | 14.52 | -1.684
CCN(C)C(=O)Nc1ccc(C(=O)OC)c(F)c1 | 50.7 | 67.03
OC1(CNc2cncc(Cl)n2)CCOCC1 | 10.98 | -4.479
CC(=O)N(C)C1CCN(C(=O)Nc2ccncc2)CC1 | 22.25 | 10.73
CN[C@H](C(=O)NCCc1scnc1C)C(C)C | -14.17 | -18.56
COc1ccccc1OCC(=O)NCC1CCOCC1 | 22.52 | 3.623
CC(C)NC(=O)C(C)S(=O)(=O)Cc1ccccc1 (stereo not drawn) | 22.85 | 5.815
Cc1noc(C)c1CN(CCO)C1CC1 | 18.29 | 9.193
O=C(c1cn(C2CNC2)nn1)N1CCCC1 | -2.799 | -11.24
CC(C(=O)NC1CC1)N1CCN(CCC#N)CC1 (stereo not drawn) | -2.035 | -21.35
CCC(N)(CC)CNS(=O)(=O)N1CCCCCC1 | 0.6979 | -6.378
CSCCCN(C)C(=O)CN(C)S(C)(=O)=O | 5.226 | -1.864
CCn1ccnc1SC1CCCCNC1=O (stereo not drawn) | 9.985 | -9.513
CS(=O)(=O)N1CCC[C@H]1C(=O)NCCSc1cnn[nH]1 | 12.68 | 11.87
c1ncc(-c2nc3c([nH]2)CCNC3)cn1 | 5.482 | -0.2021
CC(C(=O)NC(N)=O)N(C)Cc1ccc(Br)o1 (stereo not drawn) | 23.77 | -9.295
N#CCc1cc(Cl)ccn1 | -11.35 | -7.24
C=C(C)COCCNC1CCCSC1 (stereo not drawn) | 18.14 | 11.59
Cc1cc(C(=O)Nc2cc(C(F)(F)F)c[nH]c2=O)no1 | 6.65 | 4.308
Nc1nc(-c2ccco2)nn1C(=O)c1cccs1 | -1.721 | -4.8
C[C@@H](N)C(=O)NCCN1CCCCC1 | -0.4992 | 1.504

For reference, 5 entries once more:

| compound | A | B |
|---|---|---|
| `CN(Cc1ccc(N)nc1)c1ccc(C#N)cn1` | 51.84 | 44.92 |
| `CSCCCN(C)C(=O)CN(C)S(C)(=O)=O` | 5.226 | -1.864 |
| `Cc1noc(C)c1CN(CCO)C1CC1` | 18.29 | 9.193 |
| `Cc1ccc(CNC(=O)N2Cc3ccccc3C2)cn1` | -2.693 | -6.533 |
| `Cc1ccc2c(c1)C(O)CCCS2(=O)=O` (stereo not drawn) | 10.12 | 2.629 |